Measurements from PubChem BioAssay AID1671190 (National Center for Advancing Translational Sciences (NCATS), 2021).
The whole screen tested about 580,000 compounds, of which about 6,100 (1.1%) were called active. This list was built around the results that the source calls inconclusive (neither active nor inactive); the mix of calls is not that of the screen. The call rests on the fitted dose curve; in most records, active means well fitted inhibition curve with a large enough effect; inconclusive means small, poorly fitted or top-dose-only effect, or another doubt; inactive means no such curve, though single readings can be large or run the other way. Potencies beside an inconclusive call are fits to weak or partial responses and may not hold up.

Chains of the proteins cited; added tags and fusions are not shown. Lines headed by an entry give the natural chain unless they say otherwise; changes in a name come on top.
UniProt P18054: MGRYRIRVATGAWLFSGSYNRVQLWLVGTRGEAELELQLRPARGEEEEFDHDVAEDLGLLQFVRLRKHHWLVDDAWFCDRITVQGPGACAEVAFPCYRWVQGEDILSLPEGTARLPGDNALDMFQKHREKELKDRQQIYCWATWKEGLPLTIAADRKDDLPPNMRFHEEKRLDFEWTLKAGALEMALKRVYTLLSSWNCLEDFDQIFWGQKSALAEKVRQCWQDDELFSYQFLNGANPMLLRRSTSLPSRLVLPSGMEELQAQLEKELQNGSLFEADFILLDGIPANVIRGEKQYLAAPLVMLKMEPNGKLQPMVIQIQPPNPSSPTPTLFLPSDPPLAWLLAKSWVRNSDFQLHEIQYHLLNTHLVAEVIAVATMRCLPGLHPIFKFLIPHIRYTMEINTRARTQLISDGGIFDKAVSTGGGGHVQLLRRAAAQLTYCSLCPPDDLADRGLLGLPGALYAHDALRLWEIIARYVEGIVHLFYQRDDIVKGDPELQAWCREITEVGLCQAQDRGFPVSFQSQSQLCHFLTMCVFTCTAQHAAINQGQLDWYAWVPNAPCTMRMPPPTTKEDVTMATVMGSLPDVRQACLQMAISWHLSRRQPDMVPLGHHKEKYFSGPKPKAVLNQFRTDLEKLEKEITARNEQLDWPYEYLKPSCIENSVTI

Each molecule was assayed against Polyunsaturated fatty acid lipoxygenase ALOX12 (Homo sapiens) (UniProt P18054) (assay: Primary qHTS assay for inhibitors of human arachidonate 12S-lipoxygenase (ALOX12): Round 2). Conditions: purified 12hLO, xylenol orange hydroperoxide absorbance; activity change, negative = inhibition: at 108 µM (top of the series) unless noted.
Procedure, shortened: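 Hydroperoxide product was detected by ferrous iron/xylenol orange as the 573 to 405 nm absorbance ratio. Arachidonic acid at 40 uM (final) was turned over for 30 min at room temperature by 150 nM human 12hLO, pH 7.0 Hepes buffer, after 15 min compound preincubation.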
On the % scale 0 is the no-effect control and ±100 the full control effect; potency means the concentration at half of the fitted maximal effect.

Row | Structure (SMILES) | Potency | activity change, negative = inhibition
1 | COc1ccccc1Oc1cc(C#N)c(C#N)cc1-n1nnc2ccccc21 | inconclusive: 0.282 µM [inhibitor, full curve, poor fit] | –
2 | O=C(Cn1ncc2c3ccccc3n(Cc3ccccc3)c2c1=O)NCCc1ccc(Cl)cc1 | inconclusive: 100 µM [inhibitor, partial curve, poor fit] | –
3 | Cc1nc(-c2cc3ccc(OCC(=O)NC4CC4)cc3oc2=O)cs1 | inconclusive: 28.2 µM [inhibitor, single point] | –
4 | COc1ccc(CN(C(=O)Cc2cccs2)C(C(=O)NC2CCCC2)c2ccncc2)cc1 (stereo unspecified) | inconclusive: 100 µM [inhibitor, partial curve, poor fit] | –
5 | COc1cc(CNC(=O)c2cnc(C)cn2)cc(OC)c1 | inactive | –
6 | CCOc1ccc(N2CC(C(=O)NCCc3c[nH]c4ccc(C)cc34)CC2=O)cc1 (stereo unspecified) | inconclusive: 89.1 µM [inhibitor, partial curve, poor fit] | –
7 | COCCC(=O)N[C@H]1CC[C@]2(C)CCC([C@H](C)C(=O)NCCc3ccc(OC)c(OC)c3)[C@H](O)[C@H]2[C@@H]1C (stereo partly specified) | inconclusive: 100 µM [inhibitor, partial curve, poor fit] | –
8 | O=C(CNS(=O)(=O)c1ccccc1)NCC(=O)OCc1ccc(Cl)cc1 | inactive | –
9 | CCCNC(=O)N1CC(c2nc(CCOc3cccc(C)c3)no2)C1 | inactive | –
10 | CCCNC(=O)c1ccc2c(c1)N=C(CCC)c1ccccc1S2 | inactive | –
11 | Cc1cccc(CSc2cn(CC(=O)N3CCOCC3)c3ccccc23)c1 | inconclusive: 56.2 µM [inhibitor, partial curve, poor fit] | –
12 | CC1(OC(=O)C2CCCC2)C(=O)C=C2C=C(c3ccsc3)OC=C2C1=O (stereo unspecified) | active: 7.94 µM | –
13 | C=CCN(CC=C)C(=S)NC(=O)Cc1cccc2ccccc12 | inconclusive: 56.2 µM [inhibitor, partial curve, poor fit] | –
14 | CNC(=O)c1cc2cc(-c3c(C)noc3C)nc(-c3cccnc3OC)c2o1 | inconclusive: 126 µM [inhibitor, partial curve, poor fit] | –
15 | COc1ccc(-c2cc(C(F)(F)F)nc(SCC(=O)N(C)Cc3cn(C)nc3C)n2)cc1OC | inconclusive: 20 µM [inhibitor, partial curve, poor fit] | –
16 | O=C(CCN1CCCCC1)Nc1ccc(F)c(F)c1 | inactive | –
17 | O=C(Cc1sc(Nc2ccccc2)nc1-c1ccccc1)NCc1ccccc1 | inactive | –
18 | O=C1[C@@H]2Cc3c([nH]c4ccccc34)C(c3cccc(Br)c3)N2C(=O)CN1C1CCN(Cc2ccccc2)CC1 (stereo partly specified) | inactive | –
19 | Cc1ccc(S(=O)(=O)N2CCN(C3CCN(Cc4cccnc4)C3=O)CC2)cc1 (stereo unspecified) | inactive | –
20 | O=C(NC(=S)Nc1ccc(Oc2ccc(Cl)cc2)cc1)c1ccccc1 | active: 8.91 µM | –
21 | O=C1CCCC2=C1C(c1cc(Cl)ccc1O)C1=C(CCCC1=O)O2 | inconclusive: 89.1 µM [inhibitor, single point] | –
22 | CC1=C(C(=O)OCc2ccccc2)C(c2ccccc2OS(=O)(=O)c2ccccc2[N+](=O)[O-])NC(=O)N1CCCC(=O)O (stereo unspecified) | inconclusive: 56.2 µM [inhibitor, partial curve, poor fit] | –

Row | Structure (SMILES) | Potency | activity change, negative = inhibition
23 | CCOC(=O)c1cc(Sc2ccccc2N)cc(C(=O)OCC)n1 | inconclusive: 89.1 µM [inhibitor, partial curve, poor fit] | –
24 | O=C(CSc1nc2ccccc2s1)Nc1ccc(Cl)c(S(=O)(=O)N2CCOCC2)c1 | inactive | –
25 | CCN1c2cc(C(=O)Nc3ccc(OC)c(Cl)c3)ccc2C(=O)N2CCCC21 (stereo unspecified) | inconclusive: 3.55 µM [inhibitor, full curve] | –
26 | COc1ccc(/C=C2/C(=O)N(c3nc4ccccc4s3)N=C2CSc2ccc(Cl)cc2)cc1 | active: 5.01 µM | –
27 | COc1ccc(/C=C/C(=O)c2c(O)ccc3c(C)cc(=O)oc23)cc1 | inconclusive: 44.7 µM [inhibitor, partial curve, poor fit] | –
28 | CCOc1ccccc1-c1noc(CSc2nnc(-c3ccccc3)n2-c2ccc(OC)cc2)n1 | inconclusive: 50.1 µM [inhibitor, partial curve, poor fit] | –
29 | CN(C)c1ccc(CNC(=O)C2(C)Cc3c(-c4cccc(C(F)(F)F)c4)ccnc3O2)cc1 (stereo unspecified) | inconclusive: 39.8 µM [inhibitor, partial curve, poor fit] | –
30 | Cc1nc(-c2ccsc2)sc1C(=O)Nc1ccc2[nH]c(=O)[nH]c2c1 | inactive | –
31 | COc1ccc(NC(C)=O)cc1NC(=O)C1CC(=O)N(c2n[nH]c3ccccc23)C1 (stereo unspecified) | inactive | –
32 | Cc1cc(C(=O)N2CCC(C(F)(F)F)n3nccc32)on1 (stereo unspecified) | inconclusive: 0.447 µM [inhibitor, full curve, poor fit] | –
33 | Cn1cccc/c1=N\c1cccc[n+]1C | inconclusive: 100 µM [inhibitor, single point] | –
34 | CCc1nc2c(OCC(=O)c3ccc(Cl)cc3Cl)cccn2c1N(C)C(=O)c1ccncc1 | inconclusive: 44.7 µM [inhibitor, partial curve, poor fit] | –
35 | Cc1ccc(CN[C@@H]2CO[C@H](CNS(C)(=O)=O)[C@H]2O)cc1 | inconclusive: 35.5 µM [inhibitor, partial curve, poor fit] | –
36 | COc1ccc(C2CC(c3cccc(F)c3)=NN2c2ccc(S(N)(=O)=O)cc2)cc1 (stereo unspecified) | active: 31.6 µM | –
37 | COc1ccc(CNC(=O)CSc2nc3ccc(NC(=O)c4ccccc4F)cc3s2)cc1 | inconclusive: 39.8 µM [inhibitor, partial curve, poor fit] | –
38 | Cc1c(CCOC(=O)c2ccc(Cl)cc2Cl)sc[n+]1CC(=O)c1ccccc1 | inconclusive: 44.7 µM [inhibitor, partial curve, poor fit] | –
39 | N#CC1(NC(=O)CNc2cccc(-c3nnnn3C3CC3)c2)CCCC1 | inactive | –
40 | O=C1Nc2ccc(-c3cccc(C(F)(F)F)c3)cc2C(=O)N2CCN(C(=O)c3cccc(F)c3)C[C@H]12 | inconclusive: 89.1 µM [inhibitor, partial curve, poor fit] | –
41 | Cc1nc(-c2ccccn2)sc1C(=O)NC1CCC(C(F)(F)F)CC1 (stereo unspecified) | inactive | –
42 | O=C(c1ccc2c(c1)OCO2)N1CCC(Cc2ccccc2)CC1 | inconclusive: 112 µM [inhibitor, partial curve, poor fit] | –
43 | CC(C)c1ccc(C2CC(=O)Nc3cc4c(cc32)OCCO4)cc1 (stereo unspecified) | inconclusive: 0.251 µM [inhibitor, full curve, poor fit] | –
44 | N#Cc1cccc(-c2cc(NCc3cccs3)ncn2)c1 | inconclusive: 5.01 µM [inhibitor, full curve] | –

Shown in markdown: three of the compounds above

| Row | Structure (SMILES) | Potency | activity change, negative = inhibition |
| --- | --- | --- | --- |
| 28 | CCOc1ccccc1-c1noc(CSc2nnc(-c3ccccc3)n2-c2ccc(OC)cc2)n1 | inconclusive: 50.1 µM [inhibitor, partial curve, poor fit] | – |
| 29 | CN(C)c1ccc(CNC(=O)C2(C)Cc3c(-c4cccc(C(F)(F)F)c4)ccnc3O2)cc1 (stereo unspecified) | inconclusive: 39.8 µM [inhibitor, partial curve, poor fit] | – |
| 30 | Cc1nc(-c2ccsc2)sc1C(=O)Nc1ccc2[nH]c(=O)[nH]c2c1 | inactive | – |

Later entries

Row | Structure (SMILES) | Potency | activity change, negative = inhibition
45 | COc1cc(NC(=O)c2cccc(C)c2)c(Cl)cc1[N+](=O)[O-] | inconclusive: 10 µM [inhibitor, full curve, poor fit] | –
46 | O=C(NCC1CC1)c1cccc2c1C(=O)c1ccc(N3CCCC3)cc1S2(=O)=O | inconclusive: 15.8 µM [inhibitor, partial curve, poor fit] | –
47 | COc1ccc(/C=C/C(=O)Nc2ccc(C(N)=O)cc2)cc1OC | inactive | –
48 | O=C(N/N=C/c1ccc(OC2CSC2)cc1)c1ccccc1 | inactive | –
49 | CC(Nc1ccc([N+](=O)[O-])cn1)c1ccc(Cl)c(Cl)c1 (stereo unspecified) | inconclusive: 20 µM [inhibitor, partial curve, poor fit] | –
50 | CC1CCCN(C2CCN(Cc3ccc(Cl)cc3)CC2)C1 (stereo unspecified) | inconclusive: 1.41 µM [inhibitor, full curve, poor fit] | –
51 | CCC(=NNC(=O)c1ccc2c(c1)nc(C)n2CC)c1cc(F)ccc1O | inactive | –
52 | Cc1cc(C#N)ccc1OCc1ccc(C#N)cc1 | inconclusive: 44.7 µM [inhibitor, partial curve, poor fit] | –
53 | Cc1cc(C)c(C(=O)c2ccccc2)cc1C(=O)c1ccccc1 | inactive | –
54 | Cc1nc2ccc(NC(=S)N3CCC(C)CC3)cc2nc1C | inconclusive: 39.8 µM [inhibitor, partial curve, poor fit] | –
55 | CCOc1ccccc1N1CCN(C(=O)C2c3ccccc3Oc3ccccc32)CC1 | inactive | –
56 | O=C(Nc1cc(Cl)ccc1Cl)c1ccc2c(c1)N(Cc1cccc(Cl)c1)C(=O)c1ccccc1S2=O (stereo unspecified) | inactive | –
57 | COc1ccc(NCc2nn(CC(=O)c3ccc(Br)cc3)c3[n+]2CCCCC3)cc1 | inconclusive: 44.7 µM [inhibitor, partial curve, poor fit] | –
58 | O=C(NCc1cccs1)c1ccc2c(c1)sc1nc(-c3ccc(F)cc3)cn12 | inactive | –
59 | CCc1noc(-c2cn(C3CCN(C(=O)c4sccc4C)C3)nn2)n1 (stereo unspecified) | active: 44.7 µM | –
60 | COc1ccccc1N(CC(=O)NC1CC2CCC1C2)S(=O)(=O)c1ccc(C)cc1 (stereo unspecified) | inconclusive: 79.4 µM [inhibitor, partial curve, poor fit] | –
61 | O=C(Nc1cccc(-c2nnc3n2CCCC3)c1)C1CC1 | inactive | –
62 | COc1ccc(OC2CN(C(=O)c3ccccc3F)C2)cc1 | – | inactive: -1.76% [at 6.33 µM]
63 | COc1ccc(N(C(=O)c2ccco2)C(C(=O)NC2CCCC2)c2ccccc2)cc1 (stereo unspecified) | inconclusive: 100 µM [inhibitor, partial curve, poor fit] | –
64 | COc1ccc(-c2cccc(N3CCN(c4ccccn4)CC3)n2)cc1OC | inconclusive: 56.2 µM [inhibitor, partial curve, poor fit] | –
65 | Nc1c(C(=O)N2CCOCC2)sc(=S)n1-c1ccccc1 | inconclusive: 7.94 µM [inhibitor, full curve, poor fit] | –
66 | CN1CCN(S(=O)(=O)c2ccc(N(C)CCOc3cccc(Cl)c3)nc2)CC1 | inconclusive: 56.2 µM [inhibitor, partial curve, poor fit] | –
